# From PubChem BioAssay AID1688 (National Center for Advancing Translational Sciences (NCATS), 2009)
# In all, about 220,000 compounds went through this assay and about 2,400 (1.1%) were called active. Inconclusive means that the source gave no clear call. Such entries were picked first, then a sample of the others. The call rests on the fitted dose curve; in most records, active means well fitted inhibition curve with a large enough effect; inconclusive means small, poorly fitted or top-dose-only effect, or effect the other way; inactive means no such curve, though single readings can be large or run the other way. Potencies beside an inconclusive call are fits to weak or partial responses and may not hold up.
# Experiment: qHTS Multiplex Assay to Identify Dual Action Probes in a Cell Model of Huntington: Aggregate Formation (GFP); further: nearly all actives have a fitted effect of over 60% in size
# Conditions: PC12 HttQ103-GFP aggregates, Acumen cytometry, 40 h; activity change, negative = inhibition: at 46.1 µM (top of the series) unless noted
# Outline: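 PC12 cells with ecdysone-inducible HTT exon1 Q103-GFP, induced by 100 nM tebufenozide, given compounds in a concentration series. GFP aggregates (1–25 um, 6 SD above background) counted in lysates by laser-scanning cytometry, 488 nm excitation.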
# On the % scale 0 is the no-effect control and ±100 the full control effect; potency means the concentration at half of the fitted maximal effect.
SMILES,Potency,"activity change, negative = inhibition"
N#CC1=C(N)C(C#N)(C#N)[C@H](c2cccnc2)[C@H]2CN(C(=O)OCc3ccccc3)CC=C12,"inconclusive: 35.5 µM [inhibitor, single point]",
CN(Cc1ccccc1)S(=O)(=O)c1ccc(NC(=S)NC(=O)C(C)(C)C)cc1,inactive,
Cc1ccc(C(=O)O/N=C(\N)c2cccc([N+](=O)[O-])c2)cc1,"inconclusive: 22.4 µM [activator, partial curve, poor fit]",
CC(C)(C)NC(=O)Cn1nnc(-c2ccc(S(C)(=O)=O)cc2)n1,"inconclusive: 1.78 µM [inhibitor, single point]",
O=C(NNC(=S)NC(=O)c1ccccc1[N+](=O)[O-])c1ccccc1[N+](=O)[O-],inactive,
COc1ccc2cc(CN(CC3CCCO3)C(=S)Nc3ccccc3)c(=O)[nH]c2c1 (stereo unspecified),,inactive: -33.1% [at 9.22 µM]
O=S(=O)(c1ccccc1)c1cnc(-c2ccccc2)nc1N1CCCCC1,"inconclusive: 35.5 µM [inhibitor, single point]",
Cc1nc2ccc([N+](=O)[O-])cc2s1,"inconclusive: 0.562 µM [activator, full curve, poor fit]",
Oc1ccc(Cl)cc1C1=NCCNC(C(F)(F)C(F)F)=C1,"inconclusive: 22.4 µM [inhibitor, single point]",
COC(=O)Cn1c(CN2CCN(c3ccc(F)cc3)CC2)nc2c1c(=O)n(C)c(=O)n2C,"inconclusive: 15.8 µM [inhibitor, partial curve]",
CCN(CC)S(=O)(=O)c1ccc(N2CCCC2)c(NS(=O)(=O)c2ccc([N+](=O)[O-])cc2)c1,"inconclusive: 3.98 µM [inhibitor, partial curve]",
CCOCCCNC(=S)NNC(=O)CCn1nc(C)c(Br)c1C,"inconclusive: 0.631 µM [inhibitor, full curve]",
CC(C)CN1C(=S)SC(C)(C)C1n1oc(=O)n(-c2ccc(Cl)cc2)c1=O (stereo unspecified),active: 25.1 µM,
OC(COc1ccccc1Cl)CN1CCN(CC(O)COc2ccccc2Cl)CC1 (stereo unspecified),"inconclusive: 1.26 µM [activator, single point]",
Cc1ccccc1Cc1c(C)nc2nc(SCC(=O)NCc3ccco3)nn2c1C,"inconclusive: 35.5 µM [activator, single point]",
Cc1nc(C)c(C(=O)C2=C(O)C(=O)N(CCN(C)C)C2c2cccs2)s1 (stereo unspecified),inactive,
CC(C)COc1ccc(CSCCNC(=S)Nc2ccccc2)cc1,"inconclusive: 35.5 µM [inhibitor, single point]",
CCOc1cc(CO)ccc1OCC(=O)N1CCCCC1,"inconclusive: 0.708 µM [activator, single point]",
CCCN1C(=O)COc2ccc(-c3n[nH]c(=O)c4ccccc34)cc21,"inconclusive: 28.2 µM [inhibitor, single point]",
COC(=O)[C@@H]1C(c2ccccc2)(c2ccccc2)[C@@]1(C)C(=O)OC,"inconclusive: 5.62 µM [inhibitor, single point]",
COc1ccc(N=C2C(=Nc3ccc(OC)cc3)N(c3ccccc3)C(=S)N2C(=O)c2ccc(Cl)cc2)cc1,inactive,
Cn1c(=O)cc(OCCCC(=O)N2CCN(Cc3ccc4c(c3)OCO4)CC2)c2ccccc21,"inconclusive: 10 µM [activator, partial curve]",

# Already shown: an excerpt of the list.
SMILES,Potency,"activity change, negative = inhibition"
CN(Cc1ccccc1)S(=O)(=O)c1ccc(NC(=S)NC(=O)C(C)(C)C)cc1,inactive,
Cc1ccc(C(=O)O/N=C(\N)c2cccc([N+](=O)[O-])c2)cc1,"inconclusive: 22.4 µM [activator, partial curve, poor fit]",
CC(C)(C)NC(=O)Cn1nnc(-c2ccc(S(C)(=O)=O)cc2)n1,"inconclusive: 1.78 µM [inhibitor, single point]",
O=C(NNC(=S)NC(=O)c1ccccc1[N+](=O)[O-])c1ccccc1[N+](=O)[O-],inactive,
COc1ccc2cc(CN(CC3CCCO3)C(=S)Nc3ccccc3)c(=O)[nH]c2c1 (stereo unspecified),,inactive: -33.1% [at 9.22 µM]
O=S(=O)(c1ccccc1)c1cnc(-c2ccccc2)nc1N1CCCCC1,"inconclusive: 35.5 µM [inhibitor, single point]",
Cc1nc2ccc([N+](=O)[O-])cc2s1,"inconclusive: 0.562 µM [activator, full curve, poor fit]",
Oc1ccc(Cl)cc1C1=NCCNC(C(F)(F)C(F)F)=C1,"inconclusive: 22.4 µM [inhibitor, single point]",
COC(=O)Cn1c(CN2CCN(c3ccc(F)cc3)CC2)nc2c1c(=O)n(C)c(=O)n2C,"inconclusive: 15.8 µM [inhibitor, partial curve]",
CCN(CC)S(=O)(=O)c1ccc(N2CCCC2)c(NS(=O)(=O)c2ccc([N+](=O)[O-])cc2)c1,"inconclusive: 3.98 µM [inhibitor, partial curve]",
CCOCCCNC(=S)NNC(=O)CCn1nc(C)c(Br)c1C,"inconclusive: 0.631 µM [inhibitor, full curve]",

# Next part:

SMILES,Potency,"activity change, negative = inhibition"
Cc1ccc2nc(SCC(=O)Nc3cc([N+](=O)[O-])ccc3F)[nH]c2c1,"inconclusive: 2.82 µM [inhibitor, single point]",
O=c1c2ccccc2oc2nc(-c3ccco3)n(-c3ccccc3)c(=O)c12,"inconclusive: 35.5 µM [inhibitor, single point]",
CCCCNC(=O)/C(=C\c1ccc([N+](=O)[O-])o1)NC(=O)c1ccccc1,"inconclusive: 14.1 µM [inhibitor, single point]",
COc1ccc2c(c1)c1ncnc(N3CCN(Cc4ccc5c(c4)OCO5)CC3)c1n2C,"inconclusive: 25.1 µM [activator, partial curve]",
COc1ccccc1/C=N\Nc1cc(C)nc(-n2nc(C)cc2C)n1,"inconclusive: 15.8 µM [inhibitor, single point]",
CC(C)OCCCNc1ncnc2c1[nH]c1ccccc12,active: 7.08 µM,
Oc1c(C(Nc2cccc(C(F)(F)F)c2)c2ccncc2)ccc2cccnc12 (stereo unspecified),"inconclusive: 2.51 µM [inhibitor, full curve]",
CCN(CC)CCNC(=O)C(=O)NCC1OCCN1S(=O)(=O)c1ccc([N+](=O)[O-])cc1 (stereo unspecified),"inconclusive: 12.6 µM [activator, partial curve]",
Fc1ccc(NC(=S)Nc2cccc3cnccc23)cc1,"inconclusive: 35.5 µM [inhibitor, single point]",
CCOC(=O)CC(NC(=O)CCc1c(C)nc2nc(C)nn2c1C)c1ccc(C)cc1 (stereo unspecified),"inconclusive: 1.26 µM [inhibitor, single point]",
CCOC(=O)C1=C(CSCc2ccccc2)NC(=O)NC1c1cc(C)ccc1C (stereo unspecified),"inconclusive: 35.5 µM [inhibitor, single point]",
CCOc1cc2nc(-c3ccc(OC)c(OC)c3)nc(N3CC(C)OC(C)C3)c2cc1OC (stereo unspecified),"inconclusive: 5.62 µM [activator, single point]",
Cc1ccc(CNC(=O)CSc2nc(N3CCCCC3)nc(N3CCCCC3)n2)cc1,"inconclusive: 11.2 µM [inhibitor, single point]",
COc1ccc(C(CCNCc2ccc(N(C)C)cc2)C(C)C)cc1 (stereo unspecified),,inactive: -6.93% [at 9.22 µM]
COc1ccc(CCNC(=O)c2ccc(-c3cccc([N+](=O)[O-])c3)o2)cc1OC,,inactive: 17.1% [at 9.22 µM]
COc1ccc(-n2nc3c(c2NC(=O)C2CC2)CS(=O)C3)cc1 (stereo unspecified),inactive,
Cc1cccc(N2C(=O)CC(Sc3nnc(C)s3)C2=O)c1 (stereo unspecified),active: 14.1 µM,
O=C(C(Cc1ccccc1)n1cccc1)N1CCN(c2ccccc2)CC1 (stereo unspecified),"inconclusive: 15.8 µM [inhibitor, single point]",
CCCNC(=O)c1ccccc1C(=O)NC1(C(=O)NCCC)CCCC1,,inactive: 6.11% [at 9.22 µM]
O=C1OC(Nc2ccc3ncccc3c2)c2ccccc21 (stereo unspecified),"inconclusive: 2 µM [inhibitor, partial curve]",
CN1/C(=C/C(=O)c2nc(S(C)(=O)=O)ncc2Cl)C(C)(C)c2ccccc21,,inactive: 37.1% [at 9.22 µM]
CC(=O)C1=C(c2ccccc2)OC(N)=C(C#N)C1c1ccc(O)cc1 (stereo unspecified),"inconclusive: 35.5 µM [inhibitor, single point]",

SMILES,Potency,"activity change, negative = inhibition"
CCOC(=O)C(Cc1ccc(OC)c([N+](=O)[O-])c1)NC(=O)CCC(=O)Nc1ccc(C)cc1 (stereo unspecified),,inactive: -26.3% [at 9.22 µM]
CC(NS(=O)(=O)c1ccc(CCC(=O)NCc2ccco2)cc1)c1ccccc1 (stereo unspecified),"inconclusive: 11.2 µM [activator, partial curve, poor fit]",
Cc1cccc(C)c1NC(=O)Nc1cccs1,"inconclusive: 35.5 µM [activator, single point]",
CC(C)C(=O)NC(=S)Nc1ccc(S(=O)(=O)N2CCCC2)cc1,"inconclusive: 11.2 µM [activator, partial curve]",
CN(CCOc1ccc(Cl)cc1)c1ccc(S(=O)(=O)N2CCCCC2)cn1,"inconclusive: 10 µM [inhibitor, single point]",
CN(C)CCNC(=O)C(=O)NCC1OCCN1S(=O)(=O)c1ccc([N+](=O)[O-])cc1 (stereo unspecified),"inconclusive: 7.94 µM [inhibitor, partial curve]",
Cc1ccc(OCC(=O)NCc2cccs2)cc1,inactive,
COc1ccc(NC(=S)N(CCCN2CCOCC2)Cc2cn(C)c3ccccc23)cc1,"inconclusive: 12.6 µM [inhibitor, single point]",
O=C(CN1CCC(n2nnc3cc(F)ccc32)CC1)Nc1ccc2c(c1)CCC2,"inconclusive: 0.316 µM [activator, partial curve]",
CC(C)(C)OC(=O)NCCCCCNC(=O)c1[nH]cnc1C(=O)N[C@@H](CCCCNC(=O)OC(C)(C)C)C(=O)OC(C)(C)C,,inactive: 1.48% [at 9.22 µM]
O=C(NNc1nc2c(F)cc(F)cc2s1)C1COc2ccccc2O1 (stereo unspecified),inactive,
CC(=O)N[C@@H]1C(O)OC(CO)C(O)C1O (stereo partly specified),inactive,
COc1cc(SC#N)ccc1N=Cc1c(C)[nH]n(-c2ccc(C)cc2C)c1=O,"inconclusive: 8.91 µM [activator, partial curve]",
N#CCCCSc1nnc(CSc2nc3ccccc3s2)n1-c1ccccc1,"inconclusive: 35.5 µM [inhibitor, single point]",
CN(c1ncnc(N)c1[N+](=O)[O-])C1CCS(=O)(=O)C1 (stereo unspecified),active: 4.47 µM,
O=C(Nc1nccs1)c1ccccc1[N+](=O)[O-],inactive,
COc1cc2[nH]c(=O)n(CCC(=O)NC3CCN(Cc4ccccc4)CC3)c(=O)c2cc1OC,"inconclusive: 15.8 µM [activator, single point]",
NC(=O)c1nn(-c2ccccc2)nc1NC(=O)CN1CCOCC1,"inconclusive: 3.16 µM [inhibitor, partial curve]",
CCSc1nnc(NC(=O)COc2ccc3ccccc3c2)s1,inactive,
N#CC1c2ccccc2C=CN1C(=O)c1ccccc1 (stereo unspecified),,inactive: 7% [at 9.22 µM]
CCOC(=O)C(NC(C)=O)(NS(=O)(=O)c1ccccc1)C(F)(F)F (stereo unspecified),active: 3.16 µM,
CSc1ncccc1C(=O)OCc1ccccc1Cl,"inconclusive: 3.55 µM [inhibitor, partial curve]",
